# Test results: article PMC11165193
# T1: NOD2 tagged with GST (UniProt Q8K3Z0)
# T1 sequence: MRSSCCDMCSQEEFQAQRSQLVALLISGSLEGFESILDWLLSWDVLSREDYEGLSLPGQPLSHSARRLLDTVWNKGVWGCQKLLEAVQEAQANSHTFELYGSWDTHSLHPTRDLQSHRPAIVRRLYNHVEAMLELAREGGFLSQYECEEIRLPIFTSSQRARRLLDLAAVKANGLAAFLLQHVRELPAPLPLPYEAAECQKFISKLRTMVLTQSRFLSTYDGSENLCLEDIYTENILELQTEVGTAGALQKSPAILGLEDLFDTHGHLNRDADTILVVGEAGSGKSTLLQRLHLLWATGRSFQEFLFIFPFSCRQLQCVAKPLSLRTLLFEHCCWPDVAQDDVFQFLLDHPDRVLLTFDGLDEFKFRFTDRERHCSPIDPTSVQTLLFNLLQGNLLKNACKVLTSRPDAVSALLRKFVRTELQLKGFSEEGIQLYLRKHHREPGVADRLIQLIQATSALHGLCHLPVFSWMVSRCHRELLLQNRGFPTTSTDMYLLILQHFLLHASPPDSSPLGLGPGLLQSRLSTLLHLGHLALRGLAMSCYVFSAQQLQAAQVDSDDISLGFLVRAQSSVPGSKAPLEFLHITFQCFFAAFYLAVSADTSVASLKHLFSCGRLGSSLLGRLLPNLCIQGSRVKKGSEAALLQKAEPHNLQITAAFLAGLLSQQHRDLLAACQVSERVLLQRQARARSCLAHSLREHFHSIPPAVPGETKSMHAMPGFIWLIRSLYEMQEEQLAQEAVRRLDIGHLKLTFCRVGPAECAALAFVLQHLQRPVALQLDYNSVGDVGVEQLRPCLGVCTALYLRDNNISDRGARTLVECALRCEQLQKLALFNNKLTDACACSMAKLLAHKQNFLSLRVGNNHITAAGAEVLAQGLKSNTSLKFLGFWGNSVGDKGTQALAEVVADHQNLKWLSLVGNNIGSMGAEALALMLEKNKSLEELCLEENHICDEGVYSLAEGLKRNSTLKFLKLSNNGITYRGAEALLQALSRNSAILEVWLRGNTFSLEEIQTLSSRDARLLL
# Assays:
# NOD2 tagged with GST = target: T1, NOD2 tagged with GST; assay: co-IP; 293T cells co-transfected with Flag-DUF16 and GST-NOD2; cell lysate; Figure 3F; which tag was precipitated is not told
# [1] = target: Flag-Δ1 (1-90 aa) (M. pneumoniae); assay: co-IP; RAW264.7 cells transfected with Flag-DUF16 truncations alone, 48 h; cell lysate; Co-IP using Flag tag; Western blot; Figure 6E,G,I
# [2] = target: Flag-Δ2 (91–276 aa) (M. pneumoniae); assay: as above
# [3] = target: Flag-Δ3 (13-276 aa) (M. pneumoniae); assay: as above
# [4] = target: DUF16 tagged with Flag (M. pneumoniae); assay: co-IP; RAW264.7 cells transfected with DUF16; cell lysate; 'internal reverse IP'; Figure 3G
# [5] = target: Flag-Δ1 (1-90 aa) (M. pneumoniae); assay: co-IP; 293T cells co-transfected with pcDNA3.1-GST-NOD2 and Flag-DUF16 truncations, 48 h; cell lysate; Co-IP using Flag tag; Western blot; Figure 6D,F,H
# [6] = target: Flag-Δ2 (91–276 aa) (M. pneumoniae); assay: as above
# [7] = target: Flag-Δ3 (13-276 aa) (M. pneumoniae); assay: as above
molecule,measurement,setting,value
DUF16 tagged with Flag (M. pneumoniae),binding,NOD2 tagged with GST,binds
"NOD2 (endogenous in RAW264.7 macrophages) (receptor, UniProt Q8K3Z0 1-1020) MRSSCCDMCSQEEFQAQRSQLVALLISGSLEGFESILDWLLSWDVLSREDYEGLSLPGQPLSHSARRLLDTVWNKGVWGCQKLLEAVQEAQANSHTFELYGSWDTHSLHPTRDLQSHRPAIVRRLYNHVEAMLELAREGGFLSQYECEEIRLPIFTSSQRARRLLDLAAVKANGLAAFLLQHVRELPAPLPLPYEAAECQKFISKLRTMVLTQSRFLSTYDGSENLCLEDIYTENILELQTEVGTAGALQKSPAILGLEDLFDTHGHLNRDADTILVVGEAGSGKSTLLQRLHLLWATGRSFQEFLFIFPFSCRQLQCVAKPLSLRTLLFEHCCWPDVAQDDVFQFLLDHPDRVLLTFDGLDEFKFRFTDRERHCSPIDPTSVQTLLFNLLQGNLLKNACKVLTSRPDAVSALLRKFVRTELQLKGFSEEGIQLYLRKHHREPGVADRLIQLIQATSALHGLCHLPVFSWMVSRCHRELLLQNRGFPTTSTDMYLLILQHFLLHASPPDSSPLGLGPGLLQSRLSTLLHLGHLALRGLAMSCYVFSAQQLQAAQVDSDDISLGFLVRAQSSVPGSKAPLEFLHITFQCFFAAFYLAVSADTSVASLKHLFSCGRLGSSLLGRLLPNLCIQGSRVKKGSEAALLQKAEPHNLQITAAFLAGLLSQQHRDLLAACQVSERVLLQRQARARSCLAHSLREHFHSIPPAVPGETKSMHAMPGFIWLIRSLYEMQEEQLAQEAVRRLDIGHLKLTFCRVGPAECAALAFVLQHLQRPVALQLDYNSVGDVGVEQLRPCLGVCTALYLRDNNISDRGARTLVECALRCEQLQKLALFNNKLTDACACSMAKLLAHKQNFLSLRVGNNHITAAGAEVLAQGLKSNTSLKFLGFWGNSVGDKGTQALAEVVADHQNLKWLSLVGNNIGSMGAEALALMLEKNKSLEELCLEENHICDEGVYSLAEGLKRNSTLKFLKLSNNGITYRGAEALLQALSRNSAILEVWLRGNTFSLEEIQTLSSRDARLLL",binding,[1],binds
same,binding,[2],no binding
same,binding,[3],binds
same,binding,[4],binds
"NOD2 tagged with GST (receptor, UniProt Q8K3Z0 1-1020) MRSSCCDMCSQEEFQAQRSQLVALLISGSLEGFESILDWLLSWDVLSREDYEGLSLPGQPLSHSARRLLDTVWNKGVWGCQKLLEAVQEAQANSHTFELYGSWDTHSLHPTRDLQSHRPAIVRRLYNHVEAMLELAREGGFLSQYECEEIRLPIFTSSQRARRLLDLAAVKANGLAAFLLQHVRELPAPLPLPYEAAECQKFISKLRTMVLTQSRFLSTYDGSENLCLEDIYTENILELQTEVGTAGALQKSPAILGLEDLFDTHGHLNRDADTILVVGEAGSGKSTLLQRLHLLWATGRSFQEFLFIFPFSCRQLQCVAKPLSLRTLLFEHCCWPDVAQDDVFQFLLDHPDRVLLTFDGLDEFKFRFTDRERHCSPIDPTSVQTLLFNLLQGNLLKNACKVLTSRPDAVSALLRKFVRTELQLKGFSEEGIQLYLRKHHREPGVADRLIQLIQATSALHGLCHLPVFSWMVSRCHRELLLQNRGFPTTSTDMYLLILQHFLLHASPPDSSPLGLGPGLLQSRLSTLLHLGHLALRGLAMSCYVFSAQQLQAAQVDSDDISLGFLVRAQSSVPGSKAPLEFLHITFQCFFAAFYLAVSADTSVASLKHLFSCGRLGSSLLGRLLPNLCIQGSRVKKGSEAALLQKAEPHNLQITAAFLAGLLSQQHRDLLAACQVSERVLLQRQARARSCLAHSLREHFHSIPPAVPGETKSMHAMPGFIWLIRSLYEMQEEQLAQEAVRRLDIGHLKLTFCRVGPAECAALAFVLQHLQRPVALQLDYNSVGDVGVEQLRPCLGVCTALYLRDNNISDRGARTLVECALRCEQLQKLALFNNKLTDACACSMAKLLAHKQNFLSLRVGNNHITAAGAEVLAQGLKSNTSLKFLGFWGNSVGDKGTQALAEVVADHQNLKWLSLVGNNIGSMGAEALALMLEKNKSLEELCLEENHICDEGVYSLAEGLKRNSTLKFLKLSNNGITYRGAEALLQALSRNSAILEVWLRGNTFSLEEIQTLSSRDARLLL",binding,[5],binds
same,binding,[6],no binding
same,binding,[7],binds

# Results are given in words; binding and its absence hold for the method and conditions named. In cells and extracts the contact can be indirect. For some assays here: Binding calls can cover weak binding; strength is not graded here. For some assays here: Tags and fused reporters may be left off the sequences shown.
